Laboratory results published in publication PMC9976406, “ANGPTL2 binds MAG to efficiently enhance oligodendrocyte differentiation” (Cell & Bioscience, 2023).
Results are given in words; binding and its absence hold for the method and conditions named. For some assays here: Binding seen in cells or lysates may run through a third protein. Some entries that bind do so weakly or less than the wild type. Sequences can lack the tags named with a protein.

B1: ANGPTL2-Flag (angiopoietin-like protein 2) (ligand, UniProt Q9UKU9 23-493, looked up)
chain: QEDGFEGTEEGSPREFIYLNRYKRAGESQDKCTYTFIVPQQRVTGAICVNSKEPEVLLENRVHKQELELLNNELLKQKRQIETLQQLVEVDGGIVSEVKLLRKESRNMNSRVTQLYMQLLHEIIRKRDNALELSQLENRILNQTADMLQLASKYKDLEHKYQHLATLAHNQSEIIAQLEEHCQRVPSARPVPQPPPAAPPRVYQPPTYNRIINQISTNEIQSDQNLKVLPPPLPTMPTLTSLPSSTDKPSGPWRDCLQALEDGHDTSSIYLVKPENTNRLMQVWCDQRHDPGGWTVIQRRLDGSVNFFRNWETYKQGFGNIDGEYWLGLENIYWLTNQGNYKLLVTMEDWSGRKVFAEYASFRLEPESEYYKLRLGRYHGNAGDSFTWHNGKQFTTLDRDHDVYTGNCAHYQKGGWWYNACAHSNLNGVWYRGGHYRSRYQDGVYWAEFRGGSYSLKKVVMMIRPNPNTFH
notes: angiopoietin-like protein 2 (ANGPTL2), secreted into the conditioned medium of 293T cells; The same ANGPTL2-Flag was used on human and murine MAG; also called purified ANGPTL2 protein; source: 293T, transfected with CMV-ANGPTL2-Flag; conditioned medium collected after 48 h, or purified from it with M2 resin
B2: ANGPTL2-strep II (ligand, UniProt Q9UKU9 23-493)
chain: B1 chain

Columns and labels:
[1] = biological target: T1, murine MAG, full-length, fused with EGFP (N1-mMAG-EGFP) (murine) (UniProt P20917); experiment: flow cytometry on cells; 293T cells transfected with MAG-GFP plasmids, collected after 48 h, incubated with ANGPTL2-Flag (or other ANGPTL) conditioned medium at 4 °C for 1-2 h, then anti-Flag-APC and PI; binding read in EGFP+ cells
T1 sequence: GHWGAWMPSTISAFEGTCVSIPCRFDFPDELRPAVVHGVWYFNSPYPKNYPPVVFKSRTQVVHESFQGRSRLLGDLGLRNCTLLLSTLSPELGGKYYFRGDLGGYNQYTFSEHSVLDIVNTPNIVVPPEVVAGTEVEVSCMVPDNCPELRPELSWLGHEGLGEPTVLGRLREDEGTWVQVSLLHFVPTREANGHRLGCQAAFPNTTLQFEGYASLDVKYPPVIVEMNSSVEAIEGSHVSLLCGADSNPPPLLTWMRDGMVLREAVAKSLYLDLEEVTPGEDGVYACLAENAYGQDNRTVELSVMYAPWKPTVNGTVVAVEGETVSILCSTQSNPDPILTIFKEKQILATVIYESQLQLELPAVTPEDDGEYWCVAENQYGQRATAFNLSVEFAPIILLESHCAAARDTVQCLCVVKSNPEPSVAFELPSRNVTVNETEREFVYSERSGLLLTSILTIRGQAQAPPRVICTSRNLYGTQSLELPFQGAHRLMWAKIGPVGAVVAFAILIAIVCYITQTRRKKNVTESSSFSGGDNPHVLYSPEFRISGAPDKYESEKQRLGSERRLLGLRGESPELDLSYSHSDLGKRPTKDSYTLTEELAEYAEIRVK

[2] = biological target: T2, murine MAG-ECD-Fc (extracellular domain of murine MAG fused with human Fc) (murine) (UniProt P20917); experiment: co-IP; MAG-ECD-Fc and ANGPTL2-strep II co-transfected in 293T; supernatant incubated with Protein A/G beads at 4 °C for 8 h, washed with PBS with 0.1% NP-40 5 times; blots with anti-strepII or anti-Fc
T2 sequence: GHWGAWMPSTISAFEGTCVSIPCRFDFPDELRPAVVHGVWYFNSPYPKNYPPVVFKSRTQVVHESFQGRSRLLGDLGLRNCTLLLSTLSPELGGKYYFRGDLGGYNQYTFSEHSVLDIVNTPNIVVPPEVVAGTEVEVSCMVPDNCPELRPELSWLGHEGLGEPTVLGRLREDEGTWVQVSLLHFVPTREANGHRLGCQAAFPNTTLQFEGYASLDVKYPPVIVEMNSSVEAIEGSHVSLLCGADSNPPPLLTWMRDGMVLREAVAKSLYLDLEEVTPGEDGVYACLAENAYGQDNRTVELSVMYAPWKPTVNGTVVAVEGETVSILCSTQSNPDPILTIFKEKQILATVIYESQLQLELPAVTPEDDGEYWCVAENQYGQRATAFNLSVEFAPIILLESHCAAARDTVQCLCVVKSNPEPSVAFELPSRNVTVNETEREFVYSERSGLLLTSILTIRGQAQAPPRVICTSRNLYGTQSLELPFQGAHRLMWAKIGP

| Binder | binding [1] | binding [2] |
| --- | --- | --- |
| B1 | binds |  |
| B2 |  | binds |
